± gives the standard deviation of the averaged measurements. Only a part is listed here, and it is no random draw.
Compound: Nc1ncnc2c1ncn2[C@@H]1O[C@H](COP(=O)(O)OP(=O)(O)OP(=O)(O)O)[C@@H](O)[C@H]1O [adenosine triphosphate]
Assay: NP40-soluble protein abundance relative to vehicle (solubility fold change) (ratio); higher = more soluble protein in presence of ATP
Outline: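 Jurkat crude lysate (Dounce-homogenised) was treated with eight concentrations from 0.1 to 10 mM for 10 min at room temperature, then 3 min at 37 °C. It was solubilised with 0.8% NP40 and benzonase (60 min, 4 °C) and ultracentrifuged, and the supernatant was TMT-labelled for LC-MS/MS. Intensities were vsn-normalised, and the value is the fold change against the NP40-processed vehicle per replicate, from three independent experiments.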

Protein sequences, listed by entry. Tags and fused reporters are not part of them. Lines headed by an entry give the natural chain unless they say otherwise; changes in a name come on top.
UniProt Q12797: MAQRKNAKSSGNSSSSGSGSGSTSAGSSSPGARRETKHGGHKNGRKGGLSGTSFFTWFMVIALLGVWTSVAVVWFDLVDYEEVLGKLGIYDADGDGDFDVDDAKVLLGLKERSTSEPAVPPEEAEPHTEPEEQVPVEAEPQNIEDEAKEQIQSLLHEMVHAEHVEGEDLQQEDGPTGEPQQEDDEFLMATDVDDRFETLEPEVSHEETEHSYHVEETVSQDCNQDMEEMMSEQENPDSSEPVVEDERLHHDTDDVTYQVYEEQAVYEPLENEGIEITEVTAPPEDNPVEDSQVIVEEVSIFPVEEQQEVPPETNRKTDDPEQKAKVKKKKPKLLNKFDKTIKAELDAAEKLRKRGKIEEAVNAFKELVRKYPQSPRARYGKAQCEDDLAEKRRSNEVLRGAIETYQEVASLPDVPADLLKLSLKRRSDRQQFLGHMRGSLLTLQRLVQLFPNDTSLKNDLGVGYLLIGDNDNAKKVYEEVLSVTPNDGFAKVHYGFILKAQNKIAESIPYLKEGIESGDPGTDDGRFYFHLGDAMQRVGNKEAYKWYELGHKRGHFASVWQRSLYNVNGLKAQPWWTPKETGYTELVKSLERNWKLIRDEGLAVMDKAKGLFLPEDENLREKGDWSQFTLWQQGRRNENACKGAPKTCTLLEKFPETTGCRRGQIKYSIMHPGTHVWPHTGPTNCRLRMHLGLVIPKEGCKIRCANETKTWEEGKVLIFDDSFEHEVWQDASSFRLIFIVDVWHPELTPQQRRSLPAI
UniProt Q12888: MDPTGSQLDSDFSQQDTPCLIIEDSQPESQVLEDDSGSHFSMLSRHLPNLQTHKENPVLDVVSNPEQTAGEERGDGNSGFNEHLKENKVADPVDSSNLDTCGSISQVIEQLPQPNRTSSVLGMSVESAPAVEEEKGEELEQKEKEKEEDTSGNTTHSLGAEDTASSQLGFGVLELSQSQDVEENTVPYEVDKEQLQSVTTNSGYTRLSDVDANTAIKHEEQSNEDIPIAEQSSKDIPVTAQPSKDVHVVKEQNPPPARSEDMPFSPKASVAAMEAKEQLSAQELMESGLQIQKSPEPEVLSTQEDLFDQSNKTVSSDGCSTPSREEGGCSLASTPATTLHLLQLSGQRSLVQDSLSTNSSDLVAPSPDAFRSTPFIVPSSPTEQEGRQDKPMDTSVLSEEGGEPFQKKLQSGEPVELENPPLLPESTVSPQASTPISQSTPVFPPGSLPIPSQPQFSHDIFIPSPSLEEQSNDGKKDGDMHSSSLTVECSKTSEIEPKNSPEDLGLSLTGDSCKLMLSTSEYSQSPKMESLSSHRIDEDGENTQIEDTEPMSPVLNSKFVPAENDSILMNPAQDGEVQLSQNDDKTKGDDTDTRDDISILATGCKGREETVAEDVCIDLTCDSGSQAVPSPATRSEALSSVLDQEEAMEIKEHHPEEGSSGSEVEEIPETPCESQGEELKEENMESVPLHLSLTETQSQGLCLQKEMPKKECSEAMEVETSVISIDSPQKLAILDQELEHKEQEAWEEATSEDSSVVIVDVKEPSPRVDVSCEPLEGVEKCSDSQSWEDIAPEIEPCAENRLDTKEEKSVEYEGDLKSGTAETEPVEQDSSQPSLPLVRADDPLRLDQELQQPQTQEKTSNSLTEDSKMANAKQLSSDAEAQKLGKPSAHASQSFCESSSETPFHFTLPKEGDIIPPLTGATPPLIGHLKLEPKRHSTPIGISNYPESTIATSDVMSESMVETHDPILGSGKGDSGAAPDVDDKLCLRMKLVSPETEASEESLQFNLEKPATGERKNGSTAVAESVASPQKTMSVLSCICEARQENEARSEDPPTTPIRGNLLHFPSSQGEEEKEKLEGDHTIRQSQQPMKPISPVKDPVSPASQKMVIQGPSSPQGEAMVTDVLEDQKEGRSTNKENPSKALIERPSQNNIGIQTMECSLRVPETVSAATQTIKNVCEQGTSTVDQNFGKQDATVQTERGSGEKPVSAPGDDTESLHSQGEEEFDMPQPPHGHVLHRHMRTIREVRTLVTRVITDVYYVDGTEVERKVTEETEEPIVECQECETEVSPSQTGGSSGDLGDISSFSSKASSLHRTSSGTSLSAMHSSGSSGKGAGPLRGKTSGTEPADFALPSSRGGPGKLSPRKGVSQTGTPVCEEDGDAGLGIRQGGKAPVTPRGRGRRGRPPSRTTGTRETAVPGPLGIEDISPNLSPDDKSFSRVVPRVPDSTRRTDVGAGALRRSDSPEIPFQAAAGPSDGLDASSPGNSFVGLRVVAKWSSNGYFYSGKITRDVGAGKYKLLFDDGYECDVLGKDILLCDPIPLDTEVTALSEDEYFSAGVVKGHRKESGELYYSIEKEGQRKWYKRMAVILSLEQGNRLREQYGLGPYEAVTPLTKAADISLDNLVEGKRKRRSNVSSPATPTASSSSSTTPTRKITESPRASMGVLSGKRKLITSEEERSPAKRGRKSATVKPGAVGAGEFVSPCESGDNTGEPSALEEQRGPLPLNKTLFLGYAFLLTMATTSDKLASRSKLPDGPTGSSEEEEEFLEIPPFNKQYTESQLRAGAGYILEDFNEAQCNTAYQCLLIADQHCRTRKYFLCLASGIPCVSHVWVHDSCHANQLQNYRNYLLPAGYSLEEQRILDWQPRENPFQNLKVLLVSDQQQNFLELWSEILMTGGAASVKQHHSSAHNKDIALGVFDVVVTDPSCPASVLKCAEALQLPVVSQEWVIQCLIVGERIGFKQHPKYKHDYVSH
UniProt Q13151: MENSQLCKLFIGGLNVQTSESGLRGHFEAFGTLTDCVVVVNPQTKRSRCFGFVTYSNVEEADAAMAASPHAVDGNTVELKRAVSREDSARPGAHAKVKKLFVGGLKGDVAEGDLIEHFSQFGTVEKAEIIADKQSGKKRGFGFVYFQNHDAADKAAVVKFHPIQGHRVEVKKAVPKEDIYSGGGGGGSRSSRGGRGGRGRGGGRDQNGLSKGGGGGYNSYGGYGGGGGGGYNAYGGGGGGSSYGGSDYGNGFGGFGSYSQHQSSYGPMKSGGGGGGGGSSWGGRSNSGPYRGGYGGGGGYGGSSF
UniProt Q01469, whole entry: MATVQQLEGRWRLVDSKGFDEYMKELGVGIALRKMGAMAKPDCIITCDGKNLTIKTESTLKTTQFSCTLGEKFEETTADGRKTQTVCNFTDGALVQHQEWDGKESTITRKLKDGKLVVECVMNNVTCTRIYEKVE
UniProt Q96PN7: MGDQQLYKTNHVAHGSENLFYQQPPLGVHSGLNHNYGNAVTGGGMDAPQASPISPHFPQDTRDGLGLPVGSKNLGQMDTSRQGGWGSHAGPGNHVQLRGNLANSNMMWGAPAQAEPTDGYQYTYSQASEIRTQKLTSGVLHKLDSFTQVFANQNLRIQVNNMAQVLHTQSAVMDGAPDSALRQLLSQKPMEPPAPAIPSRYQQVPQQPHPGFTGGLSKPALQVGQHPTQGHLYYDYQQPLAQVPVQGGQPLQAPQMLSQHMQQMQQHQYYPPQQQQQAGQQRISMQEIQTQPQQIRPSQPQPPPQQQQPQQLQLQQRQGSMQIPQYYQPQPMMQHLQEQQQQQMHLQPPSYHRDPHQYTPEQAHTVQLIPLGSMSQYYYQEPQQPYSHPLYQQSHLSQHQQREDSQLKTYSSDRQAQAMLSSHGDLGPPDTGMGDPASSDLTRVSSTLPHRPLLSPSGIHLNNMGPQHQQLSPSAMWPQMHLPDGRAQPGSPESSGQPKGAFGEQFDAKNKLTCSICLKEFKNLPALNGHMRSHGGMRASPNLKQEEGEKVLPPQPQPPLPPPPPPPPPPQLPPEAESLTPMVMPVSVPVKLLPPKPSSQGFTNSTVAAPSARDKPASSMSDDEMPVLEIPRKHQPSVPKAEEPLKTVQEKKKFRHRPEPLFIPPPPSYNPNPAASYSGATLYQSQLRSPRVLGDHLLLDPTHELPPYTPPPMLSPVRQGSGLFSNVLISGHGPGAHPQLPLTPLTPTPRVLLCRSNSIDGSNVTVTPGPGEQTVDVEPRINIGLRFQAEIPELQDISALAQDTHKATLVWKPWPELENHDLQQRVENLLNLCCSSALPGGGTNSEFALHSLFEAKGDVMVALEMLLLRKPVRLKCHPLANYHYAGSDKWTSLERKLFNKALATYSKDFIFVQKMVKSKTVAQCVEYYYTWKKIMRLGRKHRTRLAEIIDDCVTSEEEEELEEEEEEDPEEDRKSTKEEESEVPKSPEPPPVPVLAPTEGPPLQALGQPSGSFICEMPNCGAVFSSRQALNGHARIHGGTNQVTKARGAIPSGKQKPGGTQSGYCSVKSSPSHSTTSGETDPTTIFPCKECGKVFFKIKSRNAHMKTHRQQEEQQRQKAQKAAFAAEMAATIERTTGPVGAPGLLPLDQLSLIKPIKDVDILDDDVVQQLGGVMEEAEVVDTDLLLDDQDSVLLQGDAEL
UniProt Q04323: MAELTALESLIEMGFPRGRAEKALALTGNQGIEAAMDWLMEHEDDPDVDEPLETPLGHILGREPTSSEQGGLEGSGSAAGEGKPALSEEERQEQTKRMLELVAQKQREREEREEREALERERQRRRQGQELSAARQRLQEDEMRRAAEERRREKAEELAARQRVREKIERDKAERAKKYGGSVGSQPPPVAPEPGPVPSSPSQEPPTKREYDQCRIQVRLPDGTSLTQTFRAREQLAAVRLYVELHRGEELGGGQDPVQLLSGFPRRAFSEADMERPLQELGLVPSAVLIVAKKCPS
UniProt Q13190: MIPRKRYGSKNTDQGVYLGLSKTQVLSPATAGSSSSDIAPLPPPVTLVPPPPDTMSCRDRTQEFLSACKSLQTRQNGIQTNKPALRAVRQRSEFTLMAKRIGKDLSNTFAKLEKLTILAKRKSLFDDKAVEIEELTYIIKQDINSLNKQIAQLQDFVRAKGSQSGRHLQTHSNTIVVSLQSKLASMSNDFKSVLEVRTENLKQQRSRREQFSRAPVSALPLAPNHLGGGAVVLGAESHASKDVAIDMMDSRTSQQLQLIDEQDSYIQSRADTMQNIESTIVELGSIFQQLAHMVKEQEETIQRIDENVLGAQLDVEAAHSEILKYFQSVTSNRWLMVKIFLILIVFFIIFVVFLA
UniProt Q13426: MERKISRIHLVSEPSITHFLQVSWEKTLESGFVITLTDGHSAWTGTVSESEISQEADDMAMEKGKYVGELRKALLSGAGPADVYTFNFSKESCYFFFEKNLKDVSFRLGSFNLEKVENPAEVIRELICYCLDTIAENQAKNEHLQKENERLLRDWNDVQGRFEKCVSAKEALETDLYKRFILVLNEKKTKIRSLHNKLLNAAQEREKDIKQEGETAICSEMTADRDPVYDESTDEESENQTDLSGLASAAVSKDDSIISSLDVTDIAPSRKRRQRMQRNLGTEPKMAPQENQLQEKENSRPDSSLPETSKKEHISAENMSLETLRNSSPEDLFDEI
UniProt Q13153, whole entry: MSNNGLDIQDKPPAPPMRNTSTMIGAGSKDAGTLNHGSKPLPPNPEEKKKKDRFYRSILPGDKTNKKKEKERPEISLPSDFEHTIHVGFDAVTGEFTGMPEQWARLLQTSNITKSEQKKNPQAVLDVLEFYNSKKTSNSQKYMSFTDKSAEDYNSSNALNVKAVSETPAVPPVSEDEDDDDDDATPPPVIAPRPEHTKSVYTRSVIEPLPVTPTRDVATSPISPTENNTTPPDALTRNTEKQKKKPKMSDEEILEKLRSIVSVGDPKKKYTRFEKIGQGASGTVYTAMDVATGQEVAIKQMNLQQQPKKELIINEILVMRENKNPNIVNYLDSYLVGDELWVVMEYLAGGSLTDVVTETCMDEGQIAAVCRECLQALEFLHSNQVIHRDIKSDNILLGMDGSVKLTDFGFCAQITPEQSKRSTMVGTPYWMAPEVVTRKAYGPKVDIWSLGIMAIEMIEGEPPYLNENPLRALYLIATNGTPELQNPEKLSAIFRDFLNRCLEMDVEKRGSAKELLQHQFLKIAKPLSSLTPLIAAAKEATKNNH
UniProt Q01130: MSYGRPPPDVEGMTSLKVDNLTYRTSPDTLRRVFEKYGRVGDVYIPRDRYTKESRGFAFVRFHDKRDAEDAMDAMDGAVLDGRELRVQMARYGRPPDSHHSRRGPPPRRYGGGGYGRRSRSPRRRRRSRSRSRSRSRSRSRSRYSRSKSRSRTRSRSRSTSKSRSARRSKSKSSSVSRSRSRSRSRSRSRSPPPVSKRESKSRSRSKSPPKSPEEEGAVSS
UniProt Q12824, whole entry: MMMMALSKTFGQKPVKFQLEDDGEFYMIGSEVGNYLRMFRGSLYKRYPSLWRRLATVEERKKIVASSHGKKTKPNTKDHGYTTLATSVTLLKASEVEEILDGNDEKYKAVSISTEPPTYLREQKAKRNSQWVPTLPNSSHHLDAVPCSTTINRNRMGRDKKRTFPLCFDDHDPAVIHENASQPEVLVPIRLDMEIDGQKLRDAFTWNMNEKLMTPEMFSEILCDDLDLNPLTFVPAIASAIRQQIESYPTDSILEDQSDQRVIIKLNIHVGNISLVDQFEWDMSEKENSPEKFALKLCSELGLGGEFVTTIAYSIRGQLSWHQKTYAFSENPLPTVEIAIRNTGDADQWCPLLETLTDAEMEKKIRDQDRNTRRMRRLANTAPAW

Target	NP40-soluble protein abundance (concentration: 1mM)	NP40-soluble protein abundance (concentration: 2mM)	NP40-soluble protein abundance (concentration: 4mM)	NP40-soluble protein abundance (concentration: 6mM)	NP40-soluble protein abundance (concentration: 8mM)	NP40-soluble protein abundance (concentration: 10mM)
UniProt Q13164	0.978 ± 0.058	1.03 ± 0.052	1.02 ± 0.029	0.972 ± 0.044	0.991 ± 0.068	1.01 ± 0.029
UniProt Q13416	0.944 ± 0.042	0.965 ± 0.044	0.983 ± 0.048	1.01 ± 0.052	0.968 ± 0.049	0.981 ± 0.024
SLC7A5 (UniProt Q01650)	0.957 ± 0.045	0.945 ± 0.025	0.92 ± 0.035	0.992 ± 0.042	0.899 ± 0.026	0.925 ± 0.062
TARDBP (UniProt Q13148)	0.994 ± 0.046	0.958 ± 0.02	0.934 ± 0.026	0.9801 ± 0.0073	0.932 ± 0.029	0.956 ± 0.049
UniProt Q12797 and related entries	1 ± 0.081	1.01 ± 0.094	1.04 ± 0.1	1.05 ± 0.11	1.02 ± 0.086	1.04 ± 0.085
UniProt Q12888 and related entries	0.945 ± 0.031	0.9394 ± 0.0088	0.943 ± 0.016	0.953 ± 0.017	0.9195 ± 0.0086	0.94 ± 0.013
UniProt Q08209 and related entries	0.938 ± 0.017	0.962 ± 0.047	0.94 ± 0.025	0.952 ± 0.043	0.944 ± 0.043	0.919 ± 0.047
ERCC8 (UniProt Q13216)	0.974 ± 0.1	0.95 ± 0.076	1.01 ± 0.067	0.948 ± 0.067	0.906 ± 0.056	0.968 ± 0.058
BYSL (UniProt Q13895)	1.07 ± 0.07	1.06 ± 0.058	1.06 ± 0.059	1.03 ± 0.041	1.04 ± 0.024	1.07 ± 0.051
GOLGA3 (UniProt Q08378)	0.981 ± 0.088	0.965 ± 0.062	0.956 ± 0.053	1 ± 0.11	0.937 ± 0.049	0.94 ± 0.037
MTM1 (UniProt Q13496)	1.07 ± 0.08	1.06 ± 0.066	1.06 ± 0.072	1 ± 0.092	1.07 ± 0.093	1.01 ± 0.057
HNRNPA0 (UniProt Q13151)	1.05 ± 0.077	1 ± 0.038	0.977 ± 0.051	1.09 ± 0.035	1.01 ± 0.025	1.03 ± 0.027
ACY1 (UniProt Q03154)	1.05 ± 0.1	1.01 ± 0.095	0.999 ± 0.082	0.985 ± 0.083	1.01 ± 0.079	0.983 ± 0.081
GBE1 (UniProt Q04446)	1.02 ± 0.063	1.01 ± 0.039	1.01 ± 0.064	0.983 ± 0.073	0.998 ± 0.061	1.01 ± 0.062
UniProt Q13740 and related entries	0.9765 ± 0.0057	0.951 ± 0.012	0.984 ± 0.028	0.971 ± 0.032	0.939 ± 0.016	0.913 ± 0.054
FABP5 (UniProt Q01469)	0.965 ± 0.027	0.956 ± 0.031	0.908 ± 0.012	0.951 ± 0.05	0.89 ± 0.013	0.924 ± 0.033
Q05GC8 and related entries (UniProt Q96PN7+Q05GC8)	1.02 ± 0.066	1.06 ± 0.038	1.12 ± 0.12	1.1603 ± 0.00023	1.09 ± 0.013	1.07 ± 0.07
UniProt Q04323 and related entries	0.922 ± 0.033	0.879 ± 0.028	0.914 ± 0.019	0.878 ± 0.041	0.949 ± 0.026	0.869 ± 0.088
UniProt Q13190 and related entries	1 ± 0.015	1.01 ± 0.017	0.973 ± 0.016	0.991 ± 0.046	0.981 ± 0.016	1 ± 0.016
XRCC4 (UniProt Q13426)	1.15 ± 0.19	1.02 ± 0.076	1.06 ± 0.093	1.13 ± 0.1	1.1 ± 0.071	1.13 ± 0.08
UniProt Q12933-2|Q12933 and related entries	0.997 ± 0.006	1.01 ± 0.032	1.028 ± 0.007	1.06 ± 0.066	1.065 ± 0.01	1.04 ± 0.012
RPL6 (UniProt Q02878)	1.04 ± 0.051	0.96 ± 0.12	0.948 ± 0.11	0.868 ± 0.095	0.703 ± 0.086	0.913 ± 0.1
PAK1 (UniProt Q13153)	0.964 ± 0.029	0.958 ± 0.023	0.938 ± 0.008	0.987 ± 0.013	0.948 ± 0.017	0.93 ± 0.038
KHDRBS1 (UniProt Q07666)	0.928 ± 0.12	1.13 ± 0.18	0.962 ± 0.16	1.22 ± 0.12	1.09 ± 0.072	1.02 ± 0.18
UniProt Q01130 and related entries	1.24 ± 0.12	1.23 ± 0.075	1.24 ± 0.053	1.31 ± 0.059	1.22 ± 0.025	1.24 ± 0.056
MBTD1 (UniProt Q05BQ5)	1.05 ± 0.031	1 ± 0.026	1.08 ± 0.058	1.03 ± 0.042	1.09 ± 0.085	1.08 ± 0.03
MGAT5 (UniProt Q09328)	0.975 ± 0.074	1.01 ± 0.04	0.948 ± 0.16	1 ± 0.13	0.903 ± 0.061	0.927 ± 0.086
UniProt Q12824	1.1 ± 0.023	1.07 ± 0.022	1.08 ± 0.024	1.1 ± 0.075	1.13 ± 0.013	1.12 ± 0.019
REST (UniProt Q13127)	1.06 ± 0.16	1.07 ± 0.088	1.07 ± 0.08	1.07 ± 0.092	1.05 ± 0.1	1.077 ± 0.008
CPSF1 (UniProt Q10570)	1.14 ± 0.14	1.23 ± 0.085	1.31 ± 0.13	1.25 ± 0.084	1.37 ± 0.07	1.37 ± 0.05

Part of the list above, field by field.
XRCC4 (UniProt Q13426)
  NP40-soluble protein abundance (concentration: 1mM): 1.15 ± 0.19; NP40-soluble protein abundance (concentration: 2mM): 1.02 ± 0.076; NP40-soluble protein abundance (concentration: 4mM): 1.06 ± 0.093; NP40-soluble protein abundance (concentration: 6mM): 1.13 ± 0.1; NP40-soluble protein abundance (concentration: 8mM): 1.1 ± 0.071; NP40-soluble protein abundance (concentration: 10mM): 1.13 ± 0.08
UniProt Q12933-2|Q12933 and related entries
  NP40-soluble protein abundance (concentration: 1mM): 0.997 ± 0.006; NP40-soluble protein abundance (concentration: 2mM): 1.01 ± 0.032; NP40-soluble protein abundance (concentration: 4mM): 1.028 ± 0.007; NP40-soluble protein abundance (concentration: 6mM): 1.06 ± 0.066; NP40-soluble protein abundance (concentration: 8mM): 1.065 ± 0.01; NP40-soluble protein abundance (concentration: 10mM): 1.04 ± 0.012
